# Results: PubChem BioAssay AID1347426 (Functional Genomics Laboratory (NCATS/FGL), 2020)
# Screen size: about 31,000 sequences; about 1,400 (4.5%) were called active.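 How the source made its calls: active means median seed-adjusted z-score above 1 or below -1; inactive means the rest.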 This is one part of the list.
# Experiment: Novel Modifiers of Survival Motor Neuron (SMN) Protein: Gene Identification via Genome-wide siRNA Screen;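 further: luminescence tracks full-length SMN protein made from the SMN2 reporter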
# Settings: HEK293T SMN2-luciferase reporter, siRNA knockdown, 72 h; actives lie on both sides
# Summary of the method: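 Genome-wide siRNA screen (10418 genes, 3 siRNAs each, 1 pmol per well) by reverse transfection in HEK293T cells stably carrying an SMN2-luciferase reporter; luminescence after 72 hours, normalized to negative-control siRNA, log10-transformed, MAD-scored.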
row,Sequence,median seed-adjusted z-score
1,GGAACCUCUGAAUACCAUATT against TBK1,inactive: 0.0578
2,GCAUGACACUGGAGGUCAATT against GAS6,inactive: -0.493
3,CGACUUGUUGUAUAAGUAUTT against DYNC1LI2,inactive: -0.491
4,GGGAGUAUAUUUUGAUGAATT against RARS2,inactive: -0.0247
5,CAAUGACCCUGGUUCACCATT against RNF14,inactive: 0.296
6,GCACCUCUUCAUUCCAUGATT against COQ3,inactive: 0.426
7,CGUGUGACCAGAACACCUATT against ITGAL,inactive: 0.537
8,CAAGGAUACUUAAAUCUCATT against STX19,inactive: 0.143
9,GACUCAGAUUUACACGGAATT against NTNG1,inactive: 0.0823
10,GCAUCUCUUCUAUGCCGAATT against MATN2,inactive: 0.275
11,GGAUGGGCAUGUUGAGAGATT against NUDT9,inactive: 0.277
12,GGUUUGGGAUGGGAAUUGATT against SUPT16H,active: 1.2
13,GAAGUAACACUGAAUAAUATT against FCRL5,inactive: -0.138
14,AGAUGAGGCUCUUUCUGAUTT against TXNDC6,inactive: 0.156
15,GCUUGACCCUUAGACGGAATT against LILRB3,inactive: 0.0304
16,AGAGGACCCAGAAACUUGATT against DNAJC17,inactive: 0.751
17,CACCUAGAGUACGAAAACATT against CHD8,inactive: -0.158
18,GGAAUUCACCAAUGAGACATT against SLC2A11,inactive: 0
19,GCUUCUUCCAGAUAUCAGATT against ZSCAN4,inactive: 0.617
20,GCUCGUAUAGUUUACAUCATT against GOT1L1,inactive: -0.277
21,GCCUUUUACGCAAACAUGUTT against P2RY8,inactive: -0.136
22,CAGCAUCGCGCAGAACAAATT against VAV2,inactive: 0.975
23,CACUGGGACUAAUAGUUUUTT against COQ2,inactive: -0.0121
24,CGCAUCUCUUAAUCAACAATT against DZIP3,inactive: 0.435
25,CCCAAUAACUCUGUCGAUATT against ATP11C,inactive: 0.102
26,GGUCUUUACUGGAUUCAGATT against SERINC3,inactive: 0.29
27,GAAUCAUGGAGAGUGCAAATT against PPM1E,inactive: -0.00802

# A section from the list above, as a working copy:
row,Sequence,median seed-adjusted z-score
10,GCAUCUCUUCUAUGCCGAATT against MATN2,inactive: 0.275
11,GGAUGGGCAUGUUGAGAGATT against NUDT9,inactive: 0.277

# Following part.

row,Sequence,median seed-adjusted z-score
1,GGAUGAUCAUGAGCGGCAATT against PHKG1,inactive: -0.153
2,GUAACACCGUUGAAGCUAATT against E2F8,inactive: 0.209
3,GGCAAUUGAUCAAACCGGATT against EMR2,inactive: 0.0569
4,GCGAAGAUCUUGCUCUACATT against CEP135,inactive: -0.2
5,CCUCAGCAGUGCGCAAUCATT against PHF1,inactive: -0.196
6,GGGACUACGUCAACAAGGATT against MAN2A2,inactive: -0.0938
7,CUCUUACCAUGGCCAGGCATT against KRTAP5-1,inactive: 0
8,GAGCUUCCGUGUUAGAUCATT against ZNF221,inactive: -0.536
9,CGCGUUGAAUGAGAACAUATT against PANK1,inactive: -0.329
10,CGCUGACUCUGUAAGAUGATT against RAX2,inactive: 0.345
11,CUGUGGAAAAGAUACCGUATT against EEFSEC,inactive: -0.000421
12,ACAGCUACGAGAUGCGAAATT against CAPN3,inactive: 0.0426
13,GCAUAACUCGAAACACCUUTT against POLR2J,inactive: 0.0437
14,CAAGAGUAUUUAACUAGCATT against SMARCC1,inactive: -0.0304
15,GGAUAAUGUUCGUUGCUCATT against CD5L,inactive: 0
16,GACUGAAGCUUCGUUAGUATT against POLG2,inactive: 0
17,GCCUCCCAGAUGAUCGUCATT against SLC6A13,inactive: 0.267
18,GCAUCAACGGCAUCUGUAATT against ADAMTS7,inactive: 0.146
19,CUACCUACAUCGGCCUUAATT against SMPD1,inactive: 0.353
20,GCUACUCCCUGAUUCAGAATT against SLC2A7,inactive: -0.0337
21,GCAUAGCUGUCCAAGUUAATT against UBA6,inactive: 0.0251
22,GAGAUUAUCGGAUACGGUUTT against PPFIA2,inactive: 0.176
23,UGGGCAACAUCUACACGCATT against PAQR4,inactive: 0.316
24,CCCAGUCAAUCAAAGGAAATT against CD3G,inactive: -0.0274
25,CAUCCAUGGUUAAGUCAUATT against PTK6,inactive: -0.295
26,CCAAGGUUCAGUUCUUAAATT against CHI3L2,inactive: 0.374
27,GGACCUCGAUGACUUUAGATT against PRDM1,inactive: -0.16
